Measurements: PubChem BioAssay AID2685 (National Center for Advancing Translational Sciences (NCATS), 2010)
The other results are listed elsewhere or left out. Further columns of the screen follow, without active or inactive calls. Compounds called inactive in the main read-out are mostly missing here. The note in brackets gives the kind of curve behind each potency; many fits are weak.

Assay: qHTS Assay for Lipid Storage Modulators in Drosophila S3 Cells;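 as to cell number change: cells counted by Cell Tracker Red CMTPX staining in the red channel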
Settings: BODIPY lipid droplet fluorescence, 18-24 h; for cell number change: measured here: cell count max response, cells fed with added oleic acid
Method in brief: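 Laser-scanning cytometry quantifies lipid droplet accumulation (500–530 nm total intensity; droplet/cell object ratio) in oleic acid-fed (400 uM added) Drosophila S3 cells treated with a concentration series. 20 uM Triacsin C defined 100% inhibition.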

[1] = measured here: cell number channel AC50, cells fed with added oleic acid
[2] = measured here: lipid fluorescence (Fed channel) AC50, cells fed with added oleic acid

Row | SMILES | cell number change | AC50 [1] | AC50 [2]
1 | CCOc1ccc(NC(=O)c2cnsn2)cc1 | -19.1% | 0.146 µM [falling, full curve, poor fit] | 
2 | COc1ccc(C2CC(c3ccccc3)=NN2S(=O)(=O)c2ccccc2)cc1 (centres undefined) | -26.6% |  | 
3 | Cc1ccc2nc(-c3cccc(NS(C)(=O)=O)c3)cc(-c3ccccc3)c2c1 | -21.2% |  | 25.9 µM [falling, single point]
4 | C=CCSc1nnc(COc2ccc(=O)n(-c3ccccc3)n2)n1CC | -1.3% | 0.58 µM [rising, single point] | 
5 | Cc1nnc(SCC(=O)N2CCCC(N3CCN(c4ccc(F)cc4)CC3)C2)o1 (centres undefined) | -5.45% |  | 0.58 µM [falling, single point]
6 | CC(C)C(NC(=O)c1ccccc1)C(=O)OCn1nnc2ccccc2c1=O (centres undefined) |  |  | 20.6 µM [falling, partial curve]
7 | Cc1cc(C)c(C(=O)C2OC(=O)C(C)(C)C(=O)C2(C)C)c(C)c1 (centres undefined) | -33% | 0.92 µM [falling, full curve, poor fit] | 
8 | CCc1noc(C)c1C(=O)Nc1cc(Cl)ccc1-n1cncn1 | -75.5% | 29.1 µM [falling, single point] | 
9 | COc1ccc(/C=N/NC(=O)c2ccoc2C)cc1O | -24.1% | 0.00461 µM [falling, full curve, poor fit] | 
10 | O=C(Cc1cccs1)N/N=C/C(Br)=C/c1ccccc1 | -71.9% | 20.6 µM [falling, partial curve] | 5.8 µM [falling, full curve]
11 | COc1cc(NC(=S)Nc2ccccn2)cc(OC)c1OC | 12.3% | 0.82 µM [rising, full curve, poor fit] | 1.16 µM [rising, full curve]
12 | COC(=O)c1ccc(OS(=O)(=O)c2ccc(NC(C)=O)cc2)cc1 | 13.1% |  | 6.51 µM [rising, single point]
13 | CC(C(=O)O)N(C(=O)c1ccccc1)c1ccc(F)cc1 (centres undefined) | 21.2% |  | 29.1 µM [rising, single point]
14 | CN(C(=O)c1cccc(C#N)c1)c1nnc(C2CCCO2)s1 (centres undefined) | 4.91% |  | 
15 | COc1ccc(CCNCC(=O)Nc2ccc(OC(F)(F)F)cc2)cc1OC | 12% |  | 20.6 µM [falling, single point]
16 | C/C(=N/Nc1ccnc2cc(Cl)ccc12)c1ccc(N)cc1 | -41.9% | 14.6 µM [falling, single point] | 23.1 µM [falling, single point]
17 | COc1ccc2nc(C)cc(SCC(=O)NNC(=O)COc3ccccc3)c2c1 | -12.9% |  | 10.3 µM [falling, single point]
18 | Cc1ccc(Sc2ncccc2C(=O)O)cc1C | -7.72% | 6.51 µM [falling, single point] | 0.366 µM [rising, partial curve]
19 | N#Cc1ccc(S(=O)(=O)NC2CC2)cc1 |  | 0.0461 µM [rising, full curve] | 35.5 µM [rising, single point]
20 | CC(c1ccc(Br)cc1)N1CC23C=CC(O2)C(C(=O)O)C3C1=O (centres undefined) | 36% | 6.51 µM [rising, single point] | 29.1 µM [rising, partial curve, poor fit]

Row | SMILES | cell number change | AC50 [1] | AC50 [2]
21 | CCN(C(=O)CN1C(=O)c2ccccc2S1(=O)=O)C1CCCCC1 | -14.1% |  | 
22 | CN1CCN(C(=O)CCNC(=O)Cn2ccc3ccccc3c2=O)CC1 | 4.9% |  | 0.00461 µM [falling, full curve, poor fit]
23 | COC(=O)CNC(=O)C(C)NC(=O)OCc1ccccc1 (centres undefined) | -3.94% |  | 0.0517 µM [falling, full curve]
24 | COc1ccc(NC(=O)C2CCC2)cc1S(=O)(=O)N1CCOCC1 | 0.871% |  | 1.84 µM [rising, partial curve]
25 | Cc1sc2nc(CN3CCOCC3)nc(N3CCOCC3)c2c1C |  | 1.46 µM [rising, partial curve] | 3.66 µM [rising, partial curve, poor fit]
26 | CN(C)CCCN(C(=O)CCc1ccccc1)c1nc2ccc(Cl)cc2s1 | -39.1% | 14.6 µM [falling, partial curve, poor fit] | 14.6 µM [falling, single point]
27 | COc1ccc(CN2C(=NC(=O)c3ccccc3)SC3CS(=O)(=O)CC32)cc1OC (centres undefined) | -34.7% | 14.6 µM [falling, partial curve] | 29.1 µM [falling, single point]
28 | CC(C)Sc1nc2ccsc2c(=O)[nH]1 | 7.86% | 6.51 µM [falling, single point] | 
29 | Cc1ccsc1C(=O)OCC(=O)Nc1cccc(S(=O)(=O)NC2=NCCCCC2)c1 |  |  | 6.51 µM [rising, single point]
30 | CC(=O)N1CCCN(Cc2cn(-c3ccc(C)cc3)nc2-c2ccc(F)cc2)CC1 | 1.91% |  | 29.1 µM [rising, single point]
31 | O=C(Nc1cccc(-c2cn3ccccc3n2)c1)c1cccc(Cl)c1 | -143% |  | 23.1 µM [falling, single point]
32 | O=C(c1cccn2c(=O)c3cc(Cl)ccc3nc12)N1CCOCC1 |  |  | 6.51 µM [falling, partial curve, poor fit]
33 | N#CC1=C(N)c2ccccc2CC12CCCCC2 | -38.2% | 23.1 µM [falling, single point] | 
34 | O=C(O)c1cc(-c2ccccc2)nc2ccccc12 | 5.24% |  | 29.1 µM [rising, single point]
35 | Cc1ccc(NC(=O)c2ccc3c(c2)OCO3)cc1Cl | -11.2% |  | 0.00517 µM [falling, full curve, poor fit]
36 | COc1cccc(NC(=O)C(=O)N2CCOCC2)c1 | 1.13% |  | 0.259 µM [falling, partial curve, poor fit]
37 | CCN(CC(=O)NC1CCS(=O)(=O)C1)S(=O)(=O)c1cccc(C(C)=O)c1 (centres undefined) | -39.2% | 0.184 µM [falling, full curve] | 0.517 µM [falling, full curve]
38 | O=C(Nc1cccc(NC(=O)c2ccco2)c1)c1cccc(Br)c1 | 24.6% |  | 1.16 µM [rising, single point]
39 | COc1cc(NC(=O)c2ccc([N+](=O)[O-])cc2)ccc1NC(=O)C(C)C | -3.43% |  | 
40 | CCOC(=O)N1CCN(C(=O)C(CC(C)C)NS(=O)(=O)c2ccc(C)cc2)CC1 (centres undefined) | 1.5% |  | 29.1 µM [falling, single point]

Retrieved by compound from the list above:
Row | SMILES | cell number change | AC50 [1] | AC50 [2]
24 | COc1ccc(NC(=O)C2CCC2)cc1S(=O)(=O)N1CCOCC1 | 0.871% |  | 1.84 µM [rising, partial curve]
35 | Cc1ccc(NC(=O)c2ccc3c(c2)OCO3)cc1Cl | -11.2% |  | 0.00517 µM [falling, full curve, poor fit]

The list goes on.

Row | SMILES | cell number change | AC50 [1] | AC50 [2]
41 | CN1CCC(N(C)S(=O)(=O)c2ccc(F)cc2F)CC1 | 44.4% | 0.164 µM [rising, full curve] | 0.58 µM [rising, single point]
42 | Cc1ccccc1COc1ccc2oc(C)c(C(=O)O)c2c1 | 1.07% |  | 
43 | O=C1OCc2cc(NC(=O)C3CCCCC3)ccc21 | -2.87% |  | 0.116 µM [falling, full curve, poor fit]
44 | CC(N=C1NS(=O)(=O)c2ccccc21)C(=O)N1CCc2ccccc2C1 (centres undefined) | 31.1% | 32.6 µM [rising, single point] | 
45 | O=C1c2ccccc2-c2cccc(C(=O)N3CCN(C(=O)c4ccccc4)CC3)c21 |  | 6.51 µM [falling, single point] | 6.51 µM [falling, single point]
46 | Cc1cc(C)nc(CCNC(=O)c2cc(COc3ccccc3)on2)n1 | -11.5% | 0.00517 µM [falling, full curve, poor fit] | 
47 | Clc1ccccc1/C=N/Nc1cc(N2CCOCC2)ncn1 | 31.4% | 29.1 µM [rising, single point] | 
48 | Cc1cccnc1NC(=O)Cn1nc([N+](=O)[O-])cc1C | 20.5% |  | 
49 | CC1Cc2ccccc2N1C(=O)COC(=O)c1ccc(Cl)c(S(=O)(=O)N2CCOCC2)c1 (centres undefined) | -1.42% |  | 1.3 µM [rising, full curve, poor fit]
50 | CCOc1cc(C(=O)NCc2ccncc2)cc(OCC)c1OCC | 49.6% | 7.31 µM [falling, single point] | 
51 | O=C(O)c1cnn2c(C(F)F)cc(C3CC3)nc12 | 2.66% |  | 6.51 µM [falling, single point]
52 | O=C(CSc1nc(-c2ccccc2)cs1)N1CCN(C(=O)c2ccco2)CC1 | -13.6% |  | 1.84 µM [rising, partial curve, poor fit]
53 | Cc1nn(C)c(Oc2cccc(Cl)c2)c1C(=O)O | 3.68% | 0.651 µM [falling, full curve, poor fit] | 3.66 µM [falling, single point]
54 | CC1CCN(c2ccc(NC(=O)c3cccnc3)cc2)CC1 |  |  | 13 µM [falling, partial curve]
55 | CS(=O)CSc1nc2c(cc1C#N)CCCC2 (centres undefined) | 16.6% |  | 
56 | Cc1cc(C)cc(NC(=O)C2C3C=CC(O3)C2C(=O)O)c1 (centres undefined) | 6.35% |  | 6.51 µM [falling, single point]
57 | Cc1cc(/C=C2/SC(=S)N(c3ccc([N+](=O)[O-])cc3)C2=O)c(C)n1-c1cccnc1 | -75.1% | 1.64 µM [falling, full curve] | 1.3 µM [falling, full curve]
58 | COc1ccc(S(=O)(=O)N2CCCN(S(=O)(=O)c3ccc(OC)c(C)c3)CC2)cc1C | -26.8% |  | 23.1 µM [falling, partial curve, poor fit]
59 | CCCc1cc(-c2nc(N)ncc2-c2ccc3c(c2)OCCCO3)c(O)cc1OC | -117% | 1.84 µM [rising, partial curve] | 1.84 µM [rising, partial curve]
